Results deposited as PubChem BioAssay AID652243 (Drosophila RNAi Screening Center, 2013)

- Purpose: 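Fly genes required for human androgen receptor driven transcription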 (primary screen)
- Cell system: Drosophila S2R+ cells
- Knock-down reagent: long dsRNA against Drosophila genes
- Timing: 72 h (48 h, then 24 h hormone)
- Conditions: synthetic androgen R1881 at 10 nM for 24 h
- Measured: 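Per-well raw luminescence of the androgen-driven firefly reporter and of the Renilla control, two replicates each, without normalisation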
- Direction: firefly reporter light: higher = more light from androgen-responsive reporter; Renilla control light: higher = more constitutive control signal (cell number, transfection)
- Call rule: 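Across duplicate plates, a knock-down whose log firefly/Renilla ratio shifted a set fold down or up from the GFP/LacZ control mean was a hit; the downward cut appears as both 1.5 and 3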
- Meaning of the calls: active = hit: reporter lowered or raised; inactive = no hit
The deposit covers about 24,000 reagents; this is a random part of those with a known target gene and a result. In the full data, 246 (1%) were called active. 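Plates not normalised; calls are printed but the firefly/Renilla ratio behind them is not deposited; fold cut for lowering reported inconsistently.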 Raw values vary from plate to plate and are shown uncorrected. Names joined by + are all predicted targets of the reagent. Not stated in the record: the amount of reagent.

With Alas [DRSC04044], what does the deposit list?
firefly reporter light, replicate 1: 8.00e5; firefly reporter light, replicate 2: 5.90e5; Renilla control light, replicate 1: 1.51e6; Renilla control light, replicate 2: 1.17e6; outcome: inactive

Which result is listed for PGRP-SC1a + PGRP-SC1b [DRSC25294]?
firefly reporter light, replicate 1: 4.87e5; firefly reporter light, replicate 2: 2.97e5; Renilla control light, replicate 1: 3.33e5; Renilla control light, replicate 2: 4.78e5; outcome: inactive

With tei [DRSC07616], what does the deposit list?
firefly reporter light, replicate 1: 52007; firefly reporter light, replicate 2: 52904; Renilla control light, replicate 1: 1.25e6; Renilla control light, replicate 2: 1.25e6; outcome: inactive

For tei [DRSC23756], what was measured?
firefly reporter light, replicate 1: 6.74e5; firefly reporter light, replicate 2: 3.94e5; Renilla control light, replicate 1: 4.23e5; Renilla control light, replicate 2: 4.54e5; outcome: inactive

For ADD1 [DRSC07135], how do the results read?
firefly reporter light, replicate 1: 7.60e5; firefly reporter light, replicate 2: 1.21e6; Renilla control light, replicate 1: 1.26e6; Renilla control light, replicate 2: 1.49e6; outcome: inactive

What is on record for ADD1 [DRSC26133]?
firefly reporter light, replicate 1: 2.08e5; firefly reporter light, replicate 2: 1.79e5; Renilla control light, replicate 1: 7.46e5; Renilla control light, replicate 2: 6.83e5; outcome: inactive

What is on record for RpS9 [DRSC11273]?
firefly reporter light, replicate 1: 4.82e5; firefly reporter light, replicate 2: 3.72e5; Renilla control light, replicate 1: 1.21e6; Renilla control light, replicate 2: 1.67e6; outcome: inactive

Which result is listed for Gr92a [DRSC21631]?
firefly reporter light, replicate 1: 1.24e6; firefly reporter light, replicate 2: 9.35e5; Renilla control light, replicate 1: 2.44e6; Renilla control light, replicate 2: 1.82e6; outcome: inactive

How did the screen score CG7031 [DRSC23028]?
firefly reporter light, replicate 1: 8.01e5; firefly reporter light, replicate 2: 8.54e5; Renilla control light, replicate 1: 1.14e6; Renilla control light, replicate 2: 1.44e6; outcome: inactive

With CG7031 [DRSC25813], what was measured?
firefly reporter light, replicate 1: 2.97e5; firefly reporter light, replicate 2: 4.53e5; Renilla control light, replicate 1: 5.54e5; Renilla control light, replicate 2: 5.99e5; outcome: inactive

What did the screen give for ttm50 [DRSC18587]?
firefly reporter light, replicate 1: 1.15e5; firefly reporter light, replicate 2: 1.02e5; Renilla control light, replicate 1: 9.79e5; Renilla control light, replicate 2: 7.77e5; outcome: inactive

What did the screen give for CG11300 [DRSC04104]?
firefly reporter light, replicate 1: 98261; firefly reporter light, replicate 2: 1.10e5; Renilla control light, replicate 1: 1.59e6; Renilla control light, replicate 2: 1.89e6; outcome: inactive
